pIC50: −log10 of the molar value. Some entries share one result that the patent states for a list of compounds.
Molecular target: T1, human CYP11B2 (Homo sapiens, UniProt P19099)
T1 construct: expressed in transfected cells; host or cells: V79 cells (clone V79-hCYP11B2-CLE9)
T1 sequence (P19099 25-503): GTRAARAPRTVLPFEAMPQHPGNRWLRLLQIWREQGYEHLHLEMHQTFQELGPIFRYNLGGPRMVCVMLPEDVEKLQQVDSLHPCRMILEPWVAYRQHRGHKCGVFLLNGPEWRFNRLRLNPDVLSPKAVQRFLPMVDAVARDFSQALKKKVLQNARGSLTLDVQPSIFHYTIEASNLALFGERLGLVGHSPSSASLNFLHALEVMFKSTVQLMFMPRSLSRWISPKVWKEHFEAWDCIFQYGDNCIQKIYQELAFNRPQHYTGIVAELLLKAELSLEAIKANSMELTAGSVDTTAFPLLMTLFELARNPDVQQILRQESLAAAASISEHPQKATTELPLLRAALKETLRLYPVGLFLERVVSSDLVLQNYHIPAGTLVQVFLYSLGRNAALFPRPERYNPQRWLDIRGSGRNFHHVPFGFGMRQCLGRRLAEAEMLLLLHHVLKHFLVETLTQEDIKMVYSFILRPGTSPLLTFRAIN
Test: V79-Human-CYP11B2 cell assay, modified protocol (600,000 cells/mL)
Format: cell-based
Details: 0.30 μl inhibitor
Method: V79 cell lines stably expressing the either the human CYP11B2 or the human CYP11B1 enzyme were generated using a standard transfection protocol. V79 cells were transfected with plasmids pTriEx3-Hygro-hCyp11B2 or pTriEx3-Hygro-hCyp11B1 using Lipofectamine2000 reagent. V79 cells that stably express the human CYP11B2 or human CYP11B1 enzyme were selected for and maintained in DMEM supplemented with 10% FBS and 400 μg/mL hygromycin for ˜2 weeks. Single cell clones were generated by infinite dilution in DMEM supplemented with 10% FBS and 400 μg/mL hygromycin until single colonies were obtained. […] For testing of inhibitors, cells were harvested at 80% confluency with 0.5% Trypsan-EDTA, washed once in PBS, and reconstituted in DMEM+0.1% BSA media at a cell concentration of 400,000 cells/mL. 25 μl of cells were added to a 384 well tissue culture treated plate and mixed with 0.25 μl of inhibitor or DMSO (1% final DMSO concentration) for 1 hour at 37° C., 5% CO2. After pre-incubation with inhibitor, the reaction was initiated by adding 5 μl of substrate (final concentration of 125 nM 11-deoxycorticosterone for the CYP11B2 assay or 250 nM 11-deoxycortisol for the CYP11B1 assay). The reaction was carried out for 3 hours at 37° C., 5% CO2 and was stopped by harvesting the supernatants. The amount of product in the supernatant (aldosterone for CYP11B2 assay and cortisol for the CYP11B1 assay) was measured using HTRF-based assay kit (Aldosterone HTRF-CisBio#64ALDPEB, Cortisol HTRF-CisBio #631DC002-CORT). IC50's for the inhibitor were determined by plotting the amount of product formed against the concentration of inhibitor using sigmoidal dose-response curve (variable slope) fit in GraphPad.
For the CYP11B2 assay, cells were reconstituted in DMEM+0.1% BSA media at a cell concentration of 600,000 cells/mL and for the CYP11B1 assay cells were reconstituted in DMEM+0.1% BSA media at a cell concentration of 280,000 cells/mL. 25 μl of cells were added to a 384 well tissue culture treated plate and mixed with 0.30 μl of inhibitor or DMSO (1% final DMSO concentration) for 1 hour at 37° C., 5% CO2.

Row | Compound | pIC50 | further results
1 | 9-chloro-7-(5-chloro-4- methylpyridin-3-yl)-1- methyl-4,5-dihydro- [1,2,4]triazolo[4,3- a]quinoline [Example 93] | – | pIC50 (listed as compound 93): > 5.00
2 | Cc1nnc2n1-c1c(Cl)cc(-c3cncc([C@H](C)O)c3)cc1CC2 (single isomer, unassigned) [Example 102] | > 5.00 | –
3 | Cc1nnc2n1-c1c(Cl)cc(-c3cncc([C@@H](C)O)c3)cc1CC2 (single isomer, unassigned) [Example 104] | > 5.00 | –
4 | Cc1nnc2n1-c1cc(F)c(-c3cncc([C@@](C)(O)C(F)(F)F)c3)cc1CC2 (single isomer, unassigned) [Example 123] | > 5.00 | –
5 | Cc1nnc2n1-c1cc(F)c(-c3cncc([C@](C)(O)C(F)(F)F)c3)cc1CC2 (single isomer, unassigned) [Example 124] | > 5.00 | –
6 | Cc1nnc2n1-c1ccc(-c3cccnc3)cc1CC2 [Example 76, 1-methyl-7-(pyridin-3-yl)-4,5-dihydro-[1,2,4] triazolo [4,3-] quinoline] | > 5.00 | –
7 | Cc1nnc2n1-c1ccc(-c3cnccc3C3CC3)cc1CC2 [Example 79, 7-(4-cyclo-propylpyridin 3-yl)-1-methyl-4,5-dihydro-[1,2,4] triazolo [4,3-] quinoline] | > 5.00 | –
8 | CCc1c(F)cncc1-c1cc(Cl)c2c(c1)CCc1nnc(C)n1-2 [Example 80, 9-chloro-7-(4-ethyl-5-fluoropyridin-3-yl)-1-methyl-4,5-dihydro[1,2,4]triazolo-[4,3-a]quinoline] | > 5.00 | –
9 | Cc1nnc2n1-c1c(Cl)cc(-c3cncc4c(F)cccc34)cc1CC2 [Example 81, 9-chloro-7-(8-fluoroisoquinolin-4-yl)-1-methyl-4,5-dihydro-[1,2,4]triazolo [4,3-a]quinoline] | > 5.00 | –
10 | Cc1nnc2n1-c1c(Cl)cc(-c3cncc(C#N)c3)cc1CC2 [Example 82, 5-(9-chloro-1-methyl-4,5-dihydro-[1,2,4]triazolo[4,3-a]quinolin-7-yl)nicotinonitrile] | > 5.00 | –
11 | Cc1nnc2n1-c1c(Cl)cc(-c3cnccc3C(F)(F)F)cc1CC2 [Example 83, 9-chloro-1-methyl-7-(4-(trifluoromethyl)pyridin-3-yl)-4,5-dihydro-[1,2,4] triazolo[4,3-a]quinoline] | – | pIC50 (listed as compound 83): > 5.00
12 | Cc1nnc2n1-c1c(Cl)cc(-c3cncc4cccc(F)c34)cc1CC2 [Example 84, 9-chloro-7-(5-fluoroisoquinolin-4-yl)-1-methyl-4,5-dihydro-[1,2,4]triazolo [4,3-a]quinoline] | > 5.00 | –
13 | Cc1nnc2n1-c1c(Cl)cc(-c3cccnc3)cc1CC2 [Example 85, 9-chloro-1-methyl-7-(pyridin-3-yl)-4,5-dihydro-[1,2,4]triazolo[4,3-a]quinoline] | > 5.00 | –
14 | Cc1cncc(-c2cc(Cl)c3c(c2)CCc2nnc(C)n2-3)c1C [Example 86, 9-chloro-7-(4,5-dimethylpyridin-3-yl)-1-methyl-4,5-dihydro-[1,2,4] triazolo[4,3-a]quinoline] | > 5.00 | –
15 | COc1cncc(-c2cc(Cl)c3c(c2)CCc2nnc(C)n2-3)c1C [Example 87, 9-chloro-7-(5-methoxy-4-methylpyridin-3-yl)-1-methyl-4,5-dihydro-[1,2,4] triazolo[4,3-a]quinoline] | > 5.00 | –
16 | Cc1ccncc1-c1cc(Cl)c2c(c1)CCc1nnc(C)n1-2 [Example 88, 9-chloro-1-methyl-7-(4-methylpyridin-3-yl)-4,5-dihydro-[1,2,4]triazolo[4,3-a]quinoline] | > 5.00 | –

Row | Compound | pIC50 | further results
17 | Cc1c(F)cncc1-c1cc(Cl)c2c(c1)CCc1nnc(C)n1-2 [Example 89, 9-chloro-7-(5-fluoro-4-methylpyridin-3-yl)-1-methyl-4,5-dihydro-[1,2,4] triazolo[4,3-a]quinoline] | > 5.00 | –
18 | Cc1nnc2n1-c1c(Cl)cc(-c3cncc4ccc(F)cc34)cc1CC2 [Example 90, 9-chloro-7-(6-fluoroisoquinolin-4-yl)-1-methyl-4,5-dihydro-[1,2,4]triazolo [4,3-a]quinoline] | > 5.00 | –
19 | Cc1nnc2n1-c1c(Cl)cc(-c3cncc(C(F)(F)F)c3)cc1CC2 [Example 91, 9-chloro-1-methyl-7-(5-(trifluoromethyl)pyridin-3-yl)-4,5-dihydro-[1,2,4] triazolo[4,3-a]quinoline] | > 5.00 | –
20 | Cc1nnc2n1-c1c(Cl)cc(-c3cncc(C(C)(C)O)c3)cc1CC2 [Example 92, 2-(5-(9-chloro-1-methyl-4,5-dihydro-[1,2,4]triazolo[4,3-a]quinolin-7-yl)pyridin-3-yl)propan-2-ol] | > 5.00 | –
21 | Cc1c(C#N)cncc1-c1cc(Cl)c2c(c1)CCc1nnc(C)n1-2 [Example 94, 5-(9-chloro-1-methyl-4,5-dihydro-[1,2,4]triazolo[4,3-a]quinolin-7-yl)-4-methylnicotinonitrile] | > 5.00 | –
22 | Cc1nnc2n1-c1c(Cl)cc(-c3cncc(F)c3)cc1CC2 [Example 95, 9-chloro-7-(5-fluoropyridin-3-yl)-1-methyl-4,5-dihydro-[1,2,4]triazolo[4,3-a]quinoline] | > 5.00 | –
23 | Cc1nnc2n1-c1c(Cl)cc(-c3cnccc3C3CC3)cc1CC2 [Example 96, 9-chloro-7-(4-cyclopropylpyridin-3-yl)-1-methyl-4,5-dihydro-[1,2,4]triazolo[4,3-a]quinoline] | – | pIC50 (listed as compound 96): > 5.00
24 | Cc1nnc2n1-c1c(Cl)cc(-c3cncc([C@](C)(O)C(F)(F)F)c3)cc1CC2 [Example 97, (S)-2-(5-(9-chloro-1-methyl-4,5-dihydro-[1,2,4]triazolo [4,3-a]quinolin-7-yl)pyridin-3-yl)-1,1,1-trifluoropropan-2-ol] | > 5.00 | –
25 | Cc1nnc2n1-c1c(Cl)cc(-c3cncc(F)c3C3CC3)cc1CC2 [Example 98, 9-chloro-7-(4-cyclopropyl-5-fluoropyridin-3-yl)-1-methyl-4,5-dihydro-[1,2,4]triazolo [4,3-a]quinoline] | > 5.00 | –
26 | Cc1c(-c2cc(Cl)c3c(c2)CCc2nnc(C)n2-3)cncc1C1CC1 [Example 99, 9-chloro-7-(5-cyclopropyl-4-methylpyridin-3-yl)-1-methyl-4,5-dihydro-[1,2,4] triazolo[4,3-a]quinoline] | > 5.00 | –
27 | Cc1nnc2n1-c1c(Cl)cc(-c3cncc(C4CC4)c3C#N)cc1CC2 [Example 100, 3-(9-chloro-1-methyl-4,5-dihydro-[1,2,4]triazolo[4,3-a]quinolin-7-yl)-5-cyclopropylisonicotinonitrile] | > 5.00 | –
28 | Cc1cncc(-c2cc(Cl)c3c(c2)CCc2nnc(C)n2-3)c1C1CC1 [Example 101, 9-chloro-7-(4-cyclopropyl-5-methylpyridin-3-yl)-1-methyl-4,5-dihydro-[1,2,4]triazolo[4,3-a]quinoline] | > 5.00 | –
29 | Cc1nnc2n1-c1c(Cl)cc(-c3cnccc3OC(F)F)cc1CC2 [Example 103, 9-chloro-7-(4-(difluoromethoxy)pyridin-3-yl)-1-methyl-4,5-dihydro-[1,2,4] triazolo[4,3-a]quinoline] | > 5.00 | –
30 | Cc1nnc2n1-c1c(Cl)cc(-c3cncc(C4CC4)c3Cl)cc1CC2 [Example 105, 9-chloro-7-(4-chloro-5-cyclopropylpyridin-3-yl)-1-methyl-4,5-dihydro-[1,2,4] triazolo[4,3-a]quinoline] | > 5.00 | –
31 | CCS(=O)(=O)Nc1cncc(-c2cc(Cl)c3c(c2)CCc2nnc(C)n2-3)c1 [Example 106, N-(5-(9-chloro-1-methyl-4,5-dihydro-[1,2,4]triazolo[4,3-a]quinolin-7-yl)pyridin-3-yl)ethanesulfonamide] | > 5.00 | –
32 | Cc1nnc2n1-c1c(Cl)cc(-c3cncc(Cl)c3)cc1CC2 [Example 107, 9-chloro-7-(5-chloropyridin-3-yl)-1-methyl-4,5-dihydro-[1,2,4]triazolo[4,3-a]quinoline] | > 5.00 | –

From patent publication US9073929B2, “Aldosterone synthase inhibitors” (ElexoPharm GmbH, priority 2011, dated 2015)
